Primary screen of a compound library

Values are the deposited “Percent Effect”, in %.
The controls that fix the scale are not given in the record; negative values are as filed.
This is an unselected part of the compounds tested.
A dash means the value is not listed here; it may have been measured.

Mtb growth Cornell: 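Whole-cell assay for inhibitors of Mycobacterium tuberculosis growth, labelled Cornell in the record; the read-out is not stated. The concentration is filed as 10 mM, unlikely as a test dose, so the dose is not known. The record gives no direction; compounds strong in two other growth screens of this library score well above the rest, so higher reads as stronger inhibition. About 53,000 compounds were tested under these conditions; 1.7% (about 900) showed 50% or more at least once.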
Mtb heat-shock: 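Assay on Mycobacterium tuberculosis, filed only as a heat shock assay from Cornell; the read-out is not stated. The concentration is filed as 10 mM, unlikely as a test dose, so the dose is not known. The record gives no direction; compounds that gave an IC50 in retests scored well above the rest, so higher reads as stronger inhibition. Of about 69,000 compounds tested this way, about 930 (1.4%) reached 50% or more in at least one test.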

SMILES,Mtb growth Cornell,Mtb heat-shock
CC(CN1CCOCC1)N(Cc1ccccc1)Cc1ccncc1 (stereo not shown),5.498,-28.04
Cc1cccc(-c2noc(CN3CCc4nn(C)c(=O)cc4C3)n2)c1,-,4.641
[H][C@@]12CCN(C(=O)c3cc(-c4ccco4)nc4c(Cl)cccc34)[C@]1([H])CNC2,7.507,-3.65
CCNC(=O)CCCC(=O)N1CCc2cc(Cl)cc(Cl)c2C1,22.84,1.503
Cc1nc(N(C)C/C=C/c2ccccc2)c2cnn(C)c2n1,38.25,-3.26
FC(F)(F)c1ccc(-c2cc(NC3CCNCC3)nc3[nH]ccc23)nc1,3.154,16.27
[H][C@]12CN(Cc3cccc4[nH]ccc34)C[C@]1([H])N(C1CCOCC1)C(=O)CO2,103.3,-6.746
O=C(CCc1ccc2c(c1)OCO2)Nc1cccnc1-n1cncn1,-21.5,11.76
O=C(c1ccncc1)N1CCCn2nnc(Cn3cccn3)c2C1,-21.44,7.267
CCc1ncc2c(n1)CN(Cc1nnc(CC)o1)CC2,-8.26,-23.86
CCc1n[nH]c(C2CN(C(=O)Cn3ccccc3=O)CCO2)n1 (stereo not shown),-,-6.183
Cc1nc[nH]c1CN1CCn2nc(CN3Cc4ccccc4C3)cc2C1,-7.53,14.06
CCC(CC)(CCO)CNC(=O)c1ccon1,5.863,-12.03
[H][C@@]12CS(=O)(=O)C[C@]1([H])N(Cc1ccc(F)cc1)CCN2C(=O)C1CCC1,-18.95,-13.53
Cn1c(CN2CC[C@](C)(O)C(C)(C)C2)cc2ccccc21,12.31,15.18
Cc1ccc(-c2cc(N)c(=O)n(C(C)C(=O)NC(C)C)n2)o1 (stereo not shown),26.87,8.733
Cc1c(NC(=O)c2cccc(Br)c2)c(C(=O)N(C)C)nn1C,-,-8.879
Cc1cnn(CC2CCCN2C(=O)c2csc(-c3nnc[nH]3)n2)c1 (stereo not shown),-,18.13
Cc1cnc(CN(C)C2CCN(Cc3nccn3C)C2)o1 (stereo not shown),-1.124,-13.37
COc1ccc(C)cc1-n1c(COC(C)C)n[nH]c1=O,5.801,8.147
Cc1cc(NC(=O)C(C)N2CCN(c3nc(C)cs3)CC2)on1 (stereo not shown),44.88,-15.18
O=C(NCc1c[nH]c(=O)[nH]c1=O)C1CCOc2ccccc2C1 (stereo not shown),-51.84,-20.56
CNC(=O)C1CCCCN1C(=O)CCn1cnc2sccc2c1=O (stereo not shown),-14.32,-12.94
Cc1nnc(N2CCCC3(CN(Cc4cccnc4)CCO3)C2)o1.O=C(O)C(F)(F)F.O=C(O)C(F)(F)F.O=C(O)C(F)(F)F (stereo not shown),14.44,-2.58
Cc1ccc(NC2CCN(C(=O)c3ccc(C)o3)CC2)nn1,-,12.29
COC(=O)C(NC(=O)CC(C)C)c1cc(F)ccc1F (stereo not shown),-,-7.822
CC(C)Cn1cc(C(=O)NC2CCS(=O)(=O)C2)c2ccccc2c1=O (stereo not shown),14.75,1.323
O=C(NCCc1ccc(F)cc1)NC1CCCc2c1cnn2CCO (stereo not shown),-0.6127,-20.8
O=C(NCc1ccc2nonc2c1)C1CCN(C(=O)C2CCC2)CC1,0,-4.38
Cc1cnn(CCNCC(=O)Nc2ccc(Cl)cn2)c1,-,-23.75
CCc1nc2n(n1)CC(NCc1noc(-c3ccc(C)cc3)n1)CC2 (stereo not shown),2.899,-20.24
Cc1cccnc1[C@H](C)Nc1nc(-c2cccnc2)nc2c1CNC2,56.46,41.1
CCn1nccc1CNC(=O)C(C)n1cc2c(n1)c(C)nn2C (stereo not shown),-,-3.526
Cc1cc(C)n(CC2CCCCN2C(=O)c2ccsc2)n1 (stereo not shown),-6.827,-19.84
CCN1CCCn2c(nc(CNC(=O)c3cnoc3C)cc2=O)C1.O=C(O)C(F)(F)F,-,13.94
CN(C)CC(=O)N1CCC2(CC1)CN(Cc1cccnc1)C(=O)CO2,-14.43,-16.01
CC(C)C(NCc1ccc(Cn2cncn2)cc1)c1ccccc1 (stereo not shown),4.214,-31.57
Cc1ccccc1C(=O)NC[C@@H]1CCN(C(=O)C2(O)CCCC2)C[C@H]1O,-,4.566
Cc1cc(CNC(=O)c2ccc(C(C)N3CCCCC3)o2)[nH]n1 (stereo not shown),-2.494,-22.93
CN(C)C(=O)c1n[nH]c2c1CN(CC1CCC1)C2.O=C(O)C(F)(F)F.O=C(O)C(F)(F)F,12.48,9.198
CN1CCCC2(CCN(c3cccc(C(F)(F)F)n3)C2)C1=O (stereo not shown),10.8,8.885
COCc1nn(C(C)C)c2c1CCN(Cc1ccc(C)s1)C2.O=C(O)C(F)(F)F,19.27,-25.25
CC(=O)Nc1nc(C2CCN(C(=O)c3cncs3)CC2)cs1,-23.66,-7.943
CC(C)(CO)Nc1c(NCc2ccncc2)c(=O)c1=O,23.96,15.05
Cc1ccccc1CN1CCN(C(=O)c2ccn(C(C)(C)C)c2)CC1,19.63,0.5097
[H][C@]12CNC[C@@]1(C(=O)NCCC1(O)CCN(C)CC1)CN(C1CCCC1)C2,-6.309,-36.53

Data taken from ChEMBL document CHEMBL3988442, “University of Dundee, Small-Polar-MMV Screening Library” (2021).